# Test results taken from the supplement of paper PMC10849652.
# By UniProt entry, the sequences of proteins in these tests, tags left out. Where a name states a change or a piece, a line headed by the entry shows the natural chain unless it says otherwise.
# UniProt Q5T7N2: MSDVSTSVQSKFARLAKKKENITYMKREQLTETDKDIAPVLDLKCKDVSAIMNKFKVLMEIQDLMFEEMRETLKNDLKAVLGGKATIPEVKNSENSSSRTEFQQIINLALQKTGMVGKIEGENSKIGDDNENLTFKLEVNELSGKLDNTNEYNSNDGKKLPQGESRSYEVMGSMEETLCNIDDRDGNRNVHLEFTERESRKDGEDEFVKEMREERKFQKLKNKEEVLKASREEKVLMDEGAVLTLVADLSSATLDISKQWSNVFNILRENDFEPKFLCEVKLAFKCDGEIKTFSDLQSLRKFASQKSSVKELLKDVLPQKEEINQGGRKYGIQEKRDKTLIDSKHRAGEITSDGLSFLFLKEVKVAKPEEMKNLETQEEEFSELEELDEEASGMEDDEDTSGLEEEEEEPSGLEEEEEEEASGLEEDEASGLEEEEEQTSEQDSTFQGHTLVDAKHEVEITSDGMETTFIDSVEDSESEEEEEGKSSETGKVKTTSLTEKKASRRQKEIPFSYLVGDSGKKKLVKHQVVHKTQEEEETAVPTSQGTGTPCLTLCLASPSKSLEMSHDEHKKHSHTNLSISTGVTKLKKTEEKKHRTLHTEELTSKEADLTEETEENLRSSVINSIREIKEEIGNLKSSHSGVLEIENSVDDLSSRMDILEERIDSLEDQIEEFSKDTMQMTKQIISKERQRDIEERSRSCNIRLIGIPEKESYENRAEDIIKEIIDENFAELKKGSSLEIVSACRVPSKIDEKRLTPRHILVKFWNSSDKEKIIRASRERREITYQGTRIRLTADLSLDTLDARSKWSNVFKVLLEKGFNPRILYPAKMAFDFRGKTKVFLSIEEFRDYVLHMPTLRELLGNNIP
# UniProt A6NK58: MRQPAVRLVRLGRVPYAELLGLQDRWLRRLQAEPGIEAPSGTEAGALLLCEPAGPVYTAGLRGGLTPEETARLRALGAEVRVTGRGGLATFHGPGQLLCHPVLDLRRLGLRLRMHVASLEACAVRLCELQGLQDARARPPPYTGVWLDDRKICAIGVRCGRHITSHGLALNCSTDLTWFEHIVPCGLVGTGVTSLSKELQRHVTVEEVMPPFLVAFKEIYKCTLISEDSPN
# UniProt Q3ZCW2: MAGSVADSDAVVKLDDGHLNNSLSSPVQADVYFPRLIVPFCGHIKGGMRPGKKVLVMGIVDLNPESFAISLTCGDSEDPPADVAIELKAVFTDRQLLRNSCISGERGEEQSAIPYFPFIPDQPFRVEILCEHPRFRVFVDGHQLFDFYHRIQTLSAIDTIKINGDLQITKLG
# UniProt Q9H9Z2: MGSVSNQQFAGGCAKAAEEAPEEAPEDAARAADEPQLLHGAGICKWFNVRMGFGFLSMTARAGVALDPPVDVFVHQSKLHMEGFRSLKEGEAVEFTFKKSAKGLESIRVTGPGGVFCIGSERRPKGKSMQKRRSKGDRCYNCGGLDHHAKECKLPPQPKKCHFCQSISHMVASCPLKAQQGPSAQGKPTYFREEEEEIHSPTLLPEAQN
# UniProt Q6ZV70: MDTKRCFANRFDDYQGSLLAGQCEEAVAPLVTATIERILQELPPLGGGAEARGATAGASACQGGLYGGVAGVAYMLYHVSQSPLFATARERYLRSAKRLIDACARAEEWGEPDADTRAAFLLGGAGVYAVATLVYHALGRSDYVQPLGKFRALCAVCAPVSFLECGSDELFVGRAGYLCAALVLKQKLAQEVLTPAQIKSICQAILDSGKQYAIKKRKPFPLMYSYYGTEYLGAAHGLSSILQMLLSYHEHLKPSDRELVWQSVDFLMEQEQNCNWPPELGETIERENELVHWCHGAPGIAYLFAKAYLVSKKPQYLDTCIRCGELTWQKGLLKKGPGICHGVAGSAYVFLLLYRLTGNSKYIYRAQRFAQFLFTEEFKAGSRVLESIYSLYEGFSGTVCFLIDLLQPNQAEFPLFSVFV
# UniProt Q15048: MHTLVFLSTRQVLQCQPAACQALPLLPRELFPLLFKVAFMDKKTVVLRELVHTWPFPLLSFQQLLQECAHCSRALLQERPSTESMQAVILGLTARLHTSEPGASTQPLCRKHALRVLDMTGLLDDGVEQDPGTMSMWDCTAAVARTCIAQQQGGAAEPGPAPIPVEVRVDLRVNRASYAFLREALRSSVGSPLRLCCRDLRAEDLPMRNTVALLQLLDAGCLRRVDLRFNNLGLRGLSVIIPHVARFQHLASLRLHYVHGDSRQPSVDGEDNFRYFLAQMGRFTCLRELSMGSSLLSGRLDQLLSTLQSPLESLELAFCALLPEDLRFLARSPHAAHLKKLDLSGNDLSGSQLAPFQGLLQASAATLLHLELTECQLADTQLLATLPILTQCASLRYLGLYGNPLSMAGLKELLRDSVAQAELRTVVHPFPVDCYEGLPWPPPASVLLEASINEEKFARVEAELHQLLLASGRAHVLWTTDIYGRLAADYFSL
# UniProt P49917: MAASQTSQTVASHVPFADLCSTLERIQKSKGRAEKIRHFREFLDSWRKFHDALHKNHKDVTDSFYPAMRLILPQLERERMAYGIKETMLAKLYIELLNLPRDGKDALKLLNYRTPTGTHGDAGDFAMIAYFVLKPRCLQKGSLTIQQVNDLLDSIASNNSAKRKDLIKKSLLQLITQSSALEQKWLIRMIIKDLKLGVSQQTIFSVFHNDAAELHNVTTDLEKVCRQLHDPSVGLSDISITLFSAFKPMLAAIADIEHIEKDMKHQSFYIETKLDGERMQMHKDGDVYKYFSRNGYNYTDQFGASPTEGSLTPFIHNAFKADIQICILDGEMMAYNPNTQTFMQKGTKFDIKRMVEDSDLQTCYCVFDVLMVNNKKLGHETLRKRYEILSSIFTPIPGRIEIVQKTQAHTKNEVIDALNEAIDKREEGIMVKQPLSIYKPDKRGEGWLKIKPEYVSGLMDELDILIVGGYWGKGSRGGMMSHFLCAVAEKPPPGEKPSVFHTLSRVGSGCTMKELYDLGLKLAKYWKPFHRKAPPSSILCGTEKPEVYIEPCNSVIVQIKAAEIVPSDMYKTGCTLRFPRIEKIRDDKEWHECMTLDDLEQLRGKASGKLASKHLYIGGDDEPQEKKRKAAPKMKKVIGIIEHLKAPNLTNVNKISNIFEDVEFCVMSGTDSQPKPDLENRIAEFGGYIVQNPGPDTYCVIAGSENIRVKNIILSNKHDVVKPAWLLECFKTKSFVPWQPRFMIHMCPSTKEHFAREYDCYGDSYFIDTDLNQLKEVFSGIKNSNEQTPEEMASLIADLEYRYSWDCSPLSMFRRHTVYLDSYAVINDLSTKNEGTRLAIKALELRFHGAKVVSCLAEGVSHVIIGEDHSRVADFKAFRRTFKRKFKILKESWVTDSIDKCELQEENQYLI
# UniProt Q13571: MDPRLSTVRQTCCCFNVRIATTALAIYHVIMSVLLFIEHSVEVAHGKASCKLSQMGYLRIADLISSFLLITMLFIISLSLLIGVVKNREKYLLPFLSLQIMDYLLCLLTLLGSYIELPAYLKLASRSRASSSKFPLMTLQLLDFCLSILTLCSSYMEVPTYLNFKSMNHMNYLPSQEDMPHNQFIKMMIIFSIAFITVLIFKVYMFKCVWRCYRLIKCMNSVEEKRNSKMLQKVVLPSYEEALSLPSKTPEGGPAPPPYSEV
# UniProt P13473: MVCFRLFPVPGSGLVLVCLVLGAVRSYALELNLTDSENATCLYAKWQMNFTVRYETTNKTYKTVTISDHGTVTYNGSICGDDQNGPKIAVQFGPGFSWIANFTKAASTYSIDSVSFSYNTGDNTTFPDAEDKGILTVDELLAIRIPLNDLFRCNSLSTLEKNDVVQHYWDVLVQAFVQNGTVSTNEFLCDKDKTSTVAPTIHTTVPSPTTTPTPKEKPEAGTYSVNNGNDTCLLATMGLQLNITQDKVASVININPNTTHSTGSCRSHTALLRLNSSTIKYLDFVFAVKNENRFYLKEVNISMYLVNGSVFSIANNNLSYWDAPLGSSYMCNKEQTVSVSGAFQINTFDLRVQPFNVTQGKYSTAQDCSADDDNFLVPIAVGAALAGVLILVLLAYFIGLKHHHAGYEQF
# UniProt Q99538: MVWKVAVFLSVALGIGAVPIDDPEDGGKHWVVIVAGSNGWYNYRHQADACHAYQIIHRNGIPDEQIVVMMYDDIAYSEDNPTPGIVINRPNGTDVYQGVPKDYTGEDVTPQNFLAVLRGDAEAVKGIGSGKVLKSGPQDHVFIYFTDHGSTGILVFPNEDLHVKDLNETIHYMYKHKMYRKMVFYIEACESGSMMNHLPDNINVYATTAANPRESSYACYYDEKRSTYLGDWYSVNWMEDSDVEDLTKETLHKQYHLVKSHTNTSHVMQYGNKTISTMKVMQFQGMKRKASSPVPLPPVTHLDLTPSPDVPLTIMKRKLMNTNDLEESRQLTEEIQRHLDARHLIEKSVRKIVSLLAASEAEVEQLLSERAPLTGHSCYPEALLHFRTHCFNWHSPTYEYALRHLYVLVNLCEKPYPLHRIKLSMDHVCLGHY
# UniProt Q6P1M3: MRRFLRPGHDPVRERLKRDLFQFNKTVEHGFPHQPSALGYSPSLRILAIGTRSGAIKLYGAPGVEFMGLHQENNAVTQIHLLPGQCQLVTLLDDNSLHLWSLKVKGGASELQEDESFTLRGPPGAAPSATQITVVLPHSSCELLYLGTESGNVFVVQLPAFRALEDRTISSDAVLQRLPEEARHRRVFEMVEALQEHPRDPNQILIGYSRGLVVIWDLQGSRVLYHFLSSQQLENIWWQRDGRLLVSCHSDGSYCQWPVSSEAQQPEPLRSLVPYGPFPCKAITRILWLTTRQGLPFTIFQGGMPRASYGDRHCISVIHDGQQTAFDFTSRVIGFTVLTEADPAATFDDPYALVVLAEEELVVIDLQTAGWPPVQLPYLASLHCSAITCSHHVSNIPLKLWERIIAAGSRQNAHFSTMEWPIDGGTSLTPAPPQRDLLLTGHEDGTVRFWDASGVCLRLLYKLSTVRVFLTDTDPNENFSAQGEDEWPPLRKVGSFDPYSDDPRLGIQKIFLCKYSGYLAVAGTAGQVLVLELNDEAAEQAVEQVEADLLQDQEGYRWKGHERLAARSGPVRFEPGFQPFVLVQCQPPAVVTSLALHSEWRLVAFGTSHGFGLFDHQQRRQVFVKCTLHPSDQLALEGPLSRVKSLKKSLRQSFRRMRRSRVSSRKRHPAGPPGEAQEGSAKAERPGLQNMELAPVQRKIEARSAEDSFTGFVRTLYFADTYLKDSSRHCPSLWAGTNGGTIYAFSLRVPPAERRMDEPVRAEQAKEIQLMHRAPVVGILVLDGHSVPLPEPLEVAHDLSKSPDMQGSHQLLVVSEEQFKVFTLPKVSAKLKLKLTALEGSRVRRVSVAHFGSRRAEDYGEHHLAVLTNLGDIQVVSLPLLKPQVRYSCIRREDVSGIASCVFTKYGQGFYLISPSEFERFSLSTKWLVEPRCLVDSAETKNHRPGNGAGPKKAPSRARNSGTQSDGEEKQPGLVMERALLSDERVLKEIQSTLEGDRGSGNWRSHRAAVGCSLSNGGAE
# UniProt O95835: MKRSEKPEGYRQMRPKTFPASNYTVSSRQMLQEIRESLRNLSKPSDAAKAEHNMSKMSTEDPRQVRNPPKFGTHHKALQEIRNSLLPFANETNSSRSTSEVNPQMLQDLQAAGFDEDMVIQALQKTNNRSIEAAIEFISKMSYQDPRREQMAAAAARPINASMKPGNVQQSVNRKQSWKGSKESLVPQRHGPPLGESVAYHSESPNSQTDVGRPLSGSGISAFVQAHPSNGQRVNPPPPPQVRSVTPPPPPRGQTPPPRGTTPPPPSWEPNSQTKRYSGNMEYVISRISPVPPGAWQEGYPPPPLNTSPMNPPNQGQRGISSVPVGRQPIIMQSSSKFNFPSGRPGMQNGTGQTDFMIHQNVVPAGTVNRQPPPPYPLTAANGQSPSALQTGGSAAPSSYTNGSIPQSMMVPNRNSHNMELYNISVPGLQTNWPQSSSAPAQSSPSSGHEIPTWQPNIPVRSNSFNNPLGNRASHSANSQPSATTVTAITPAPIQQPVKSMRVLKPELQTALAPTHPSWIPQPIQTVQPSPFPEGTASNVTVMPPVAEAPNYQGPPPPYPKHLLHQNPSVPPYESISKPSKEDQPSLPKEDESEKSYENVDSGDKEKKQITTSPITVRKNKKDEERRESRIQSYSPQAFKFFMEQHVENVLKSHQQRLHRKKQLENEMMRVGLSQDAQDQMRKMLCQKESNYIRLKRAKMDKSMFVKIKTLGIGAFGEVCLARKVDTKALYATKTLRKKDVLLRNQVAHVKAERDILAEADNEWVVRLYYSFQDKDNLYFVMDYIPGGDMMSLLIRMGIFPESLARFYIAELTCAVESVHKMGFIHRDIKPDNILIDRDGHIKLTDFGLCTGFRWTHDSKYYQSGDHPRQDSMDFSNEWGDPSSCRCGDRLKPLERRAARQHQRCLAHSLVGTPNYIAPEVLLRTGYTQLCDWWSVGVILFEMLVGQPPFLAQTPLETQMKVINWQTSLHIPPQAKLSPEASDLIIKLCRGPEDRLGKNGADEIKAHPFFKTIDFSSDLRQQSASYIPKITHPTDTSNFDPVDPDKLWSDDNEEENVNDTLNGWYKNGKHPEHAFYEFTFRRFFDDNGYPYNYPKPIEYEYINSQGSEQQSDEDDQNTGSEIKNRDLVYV
# The list shows a part of the results.
# Compound: CN1C2=C(C3=C1C(=O)N(N=C3)CC4=CC(=CC=C4)N)SC(=C2)S(=O)C
# Experiment: log2 fold change, soluble protein after heating vs DMSO (PISA); higher = thermal stabilisation; K562 cells, 10 uM, 30 min; active = over 0.2 and 3.5 SD of the protein, either way, in both replicates (recomputed)
# In short: (§1)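 Soluble protein was quantified by TMTpro 16plex LC-MS/MS after channel sums were equalised. It was obtained as the supernatant after 21,000xg for 90 min from pooled aliquots of K562 cells (2×10^6 cells/mL, 10 μM compound, 30 min) heated for 3 min across 48°C-58°C and extracted in PBS with 0.5% NP-40 at 4°C. Thermal stability values are relative to control samples and come from duplicates. They are given as log2 fold changes.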
row,Target,log2 fold change
1,LAMA5 (UniProt O15230),inactive: 0.224
2,LAMB2 (UniProt P55268),inactive: 0.061
3,L1TD1 (UniProt Q5T7N2),inactive: 0.075
4,LIPT2 (UniProt A6NK58),inactive: 0.031
5,KXD1 (UniProt Q9BQD3),inactive: 0.011
6,LAMC1 (UniProt P11047),inactive: -0.207
7,LEPROT (UniProt O15243),inactive: 0.117
8,LRRC42 (UniProt Q9Y546),inactive: -0.028
9,LIN52 (UniProt Q52LA3),inactive: 0.003
10,LGALSL (UniProt Q3ZCW2),inactive: 0.408
11,LIN28A (UniProt Q9H9Z2),inactive: -0.082
12,LANCL3 (UniProt Q6ZV70),inactive: -0.001
13,LMO4 (UniProt P61968),inactive: -0.004
14,LEPROTL1 isoform 2 (UniProt O95214),inactive: -0.031
15,LRRC14 (UniProt Q15048),inactive: 0.013
16,LMLN isoform 3 (UniProt Q96KR4),inactive: 0.189
17,LIG4 (UniProt P49917),inactive: 0
18,LAPTM5 (UniProt Q13571),inactive: 0.214
19,LRP1 (UniProt Q07954),inactive: 0.428
20,LAMP2 isoform 2 (UniProt P13473),inactive: -0.112
21,LGALS3 (UniProt P17931),inactive: 0.207
22,LRP5 (UniProt O75197),inactive: 0.06

# Compound: CN1CCC(CNc2ccc3ncc(-c4cccc(OC(F)(F)F)c4)n3n2)CC1
# Experiment: as above
# In short: as §1
row,Target,log2 fold change
1,LAMA5 (UniProt O15230),inactive: -0.203
2,LGMN (UniProt Q99538),inactive: -0.054
3,L1TD1 (UniProt Q5T7N2),inactive: -0.016
4,KXD1 (UniProt Q9BQD3),inactive: -0.096
5,LAMC1 (UniProt P11047),inactive: -0.118
6,LEPROT (UniProt O15243),inactive: -0.03
7,LRRC42 (UniProt Q9Y546),inactive: -0.243
8,LIN28A (UniProt Q9H9Z2),inactive: -0.042
9,LLGL2 (UniProt Q6P1M3),inactive: -0.051
10,LAPTM4B (UniProt Q86VI4),active: 0.968
11,LMO4 (UniProt P61968),inactive: 0.003
12,LATS1 (UniProt O95835),inactive: -0.037
13,LIG4 (UniProt P49917),inactive: 0.268
14,LAPTM5 (UniProt Q13571),inactive: -0.091
15,LRP1 (UniProt Q07954),inactive: -0.096
16,LAMP2 isoform 2 (UniProt P13473),active: -0.485
17,LGALS3 (UniProt P17931),inactive: 0.043
18,LRP5 (UniProt O75197),inactive: 0.045
